PubChem BioAssay AID1159508 – Drosophila RNAi Screening Center – 2015

Assay: 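Viability reference data for a dsRNA library against RNA-binding protein genes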
Cell system: Drosophila S2R+ cells
Knock-down reagent: long dsRNA against Drosophila genes
Timing: 5 days
Detection: 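Total ATP per well measured by luciferase luminescence after 5 days, expressed as z-scores for each replicate and as their average across up to three replicates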
Reading the numbers: mean ATP z-score and ATP z-score: higher = more total ATP luminescence
Rule for the call: In these data the active calls have mean ATP z-score at about -2 or lower, or at about 2 or higher
Calls: active = strong ATP change (up or down); inactive = no strong ATP change
The deposit covers 812 reagents; below is a random part of them. 18 of all reagents (2.2%) were called active. 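Calls include both increased and decreased ATP; roughly one in four reagents has no third replicate value.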 The numbers tell different reagents against one gene apart. Not all columns of the deposit are shown. Not stated in the record: the amount of reagent.

| target gene | reagent no. | mean ATP z-score | ATP z-score, replicate 1 | activity call |
| --- | --- | --- | --- | --- |
| Ythdc1 (GeneID 38420) | 1 | 0.771 | 0.303 | inactive |
| Ythdc1 (GeneID 38420) | 2 | -0.791 | -1.17 | inactive |
| snf (GeneID 31442) | 1 | -0.688 | -0.988 | inactive |
| snf (GeneID 31442) | 2 | -1.16 | -1.7 | inactive |
| Sbds (GeneID 38749) | 1 | 0.0542 | -0.0608 | inactive |
| Sbds (GeneID 38749) | 2 | 0.487 | 0.197 | inactive |
| CG14641 (GeneID 40529) | 1 | 0.398 | 0.0163 | inactive |
| CG14641 (GeneID 40529) | 2 | -0.704 | -0.981 | inactive |
| CG12129 (GeneID 36044) | 1 | 0.66 | 0.366 | inactive |
| CG12129 (GeneID 36044) | 2 | 0.385 | -0.212 | inactive |
| Rbp1 (GeneID 41294) | 1 | -0.39 | -0.795 | inactive |
| Rbp1 (GeneID 41294) | 2 | 0.104 | -0.534 | inactive |
| CG10384 (GeneID 37567) | 1 | -0.352 | -0.542 | inactive |
| CG10384 (GeneID 37567) | 2 | 0.622 | -0.537 | inactive |
| CG5808 (GeneID 42957) | 1 | -0.251 | -0.94 | inactive |
| CG5808 (GeneID 42957) | 2 | -0.504 | -0.692 | inactive |
| Larp4B (GeneID 38399) | 1 | 1.16 | 0.152 | inactive |
| Larp4B (GeneID 38399) | 2 | -0.165 | -0.49 | inactive |
| pasha (GeneID 43728) | 1 | 0.216 | -0.266 | inactive |
| pasha (GeneID 43728) | 2 | -0.541 | -0.98 | inactive |
| egl (GeneID 37757) | 1 | -0.109 | -0.429 | inactive |
| egl (GeneID 37757) | 2 | -0.383 | -0.537 | inactive |
| TyrRS-m (GeneID 37965) | 1 | 0.318 | -0.0456 | inactive |
| TyrRS-m (GeneID 37965) | 2 | 0.128 | -0.446 | inactive |
| eIF4H2 (GeneID 43645) | 1 | -0.35 | -0.846 | inactive |
| eIF4H2 (GeneID 43645) | 2 | 1.09 | 0.871 | inactive |
| Fmr1 (GeneID 37528) | 1 | -0.269 | -0.589 | inactive |
| Fmr1 (GeneID 37528) | 2 | 0.00232 | -0.0361 | inactive |
| Fib (GeneID 37662) | 1 | 0.0837 | -0.0771 | inactive |
| Fib (GeneID 37662) | 2 | -0.437 | -0.575 | inactive |
| Dis3l2 (GeneID 38034) | 1 | 0.342 | -0.229 | inactive |
| Dis3l2 (GeneID 38034) | 2 | 0.107 | -0.767 | inactive |
| Nsun2 (GeneID 45064) | 1 | 0.48 | 0.0637 | inactive |
| Nsun2 (GeneID 45064) | 2 | -0.0382 | -0.239 | inactive |
| DENR (GeneID 32679) | 1 | 0.483 | 0.226 | inactive |
| DENR (GeneID 32679) | 2 | -0.052 | -0.453 | inactive |
| CG4887 (GeneID 33304) | 1 | -0.301 | -0.907 | inactive |
| CG4887 (GeneID 33304) | 2 | -0.833 | -0.921 | inactive |
| Dis3 (GeneID 42900) | 1 | 0.0796 | 0.0482 | inactive |
| Dis3 (GeneID 42900) | 2 | -0.06 | -0.242 | inactive |
| Spt6 (GeneID 44000) | 1 | 1.8 | 1.59 | inactive |
| Spt6 (GeneID 44000) | 2 | 1.33 | 0.88 | inactive |
| Sf3a1 (GeneID 42048) | 1 | -1.61 | -1.74 | inactive |
| Sf3a1 (GeneID 42048) | 2 | -1.38 | -1.4 | inactive |
| CG11360 (GeneID 43810) | 1 | 1.6 | 0.934 | inactive |
| CG11360 (GeneID 43810) | 2 | 0.0575 | -0.341 | inactive |
| SLIRP2 (GeneID 41021) | 1 | -0.358 | -0.508 | inactive |
| SLIRP2 (GeneID 41021) | 2 | -0.081 | -0.652 | inactive |
| Ude (GeneID 42953) | 1 | 0.0307 | -0.393 | inactive |
| Ude (GeneID 42953) | 2 | -0.12 | -0.862 | inactive |
| Sbp2 (GeneID 38934) | 1 | 0.357 | 0.278 | inactive |
| Sbp2 (GeneID 38934) | 2 | -0.393 | -0.667 | inactive |
| nonA-l (GeneID 42026) | 1 | 0.497 | 0.397 | inactive |
| nonA-l (GeneID 42026) | 2 | 0.875 | 0.371 | inactive |
| CG5641 (GeneID 41529) | 1 | 0.272 | 0.00093 | inactive |
| CG5641 (GeneID 41529) | 2 | -1.19 | -1.44 | inactive |
| eEFSec (GeneID 37444) | 1 | -0.173 | -0.518 | inactive |
| eEFSec (GeneID 37444) | 2 | 0.202 | 0.0959 | inactive |
| mub (GeneID 40436) | 1 | -1.11 | -1.38 | inactive |
| mub (GeneID 40436) | 2 | 0.323 | 0.185 | inactive |
